No constants are given. Whether binding was seen depends on the method and setting. Some binding calls cover weakened binding; strength is not graded here.
Columns and labels:
[1] = target: biotinylated … peptide; test: BLI (Octet), biotinylated peptide on streptavidin biosensor
[2] = target: Mutant Human HTT Exon 1 48Q (GST) (human); test: BLI (Octet), Mutant HTT exon1 48Q on GST biosensor
[3] = target: Mutant Human HTT Exon 1 48Q (GST) (human); test: HTT sandwich ELISA
[4] = target: Murine HTT antigen (murine); test: direct ELISA on coated murine HTT antigen

Measured: binding

B1: ATL_0006375 (antibody, V domains shown)
VH: EVQLVESGGGLVKPGGSLRLSCAASGFTFNKAWMSWVRQAPGKGLEWVGRIKSGIDAGTTDYAAPVKGRFTISRDDSKNTLYLQMNSLKTEDTAVYYCVPPPYYYYYGLDVWGQGTTVTVSS
VL: QSALTQPRSVSGSPGQSVTISCTGTSSDVGSYNLVSWYQQHPGKAPKLMIYEVNKRPSGVPDRFSGSKSGATASLTISGLQAEDEADYYCVSYGGTENVFGTGTKVTVL
binds: [1] | [2] | [3]

B2: ATL_0006376 (antibody, V domains shown)
VH: EVQLVESGGGLVKPGGSLRLSCAASGFTFNKAWMSWVRQAPGKGLEWVGRIKSGIDAGTTDYAAPVKGRFTISRDDSKNTLYLQMNSLKTEDTAVYYCVPPPFYYYYGLDVWGQGTTVTVSS
VL: QSALTQPRSVSGSPGQSVTISCTGTSSDVGSYNLVSWYQQHPGKAPKLMIYEVNKRPSGVPDRFSGSKSGATASLTISGLQAEDEADYYCVSYGGTENVFGTGTKVTVL
binds: all assays above

B3: ATL_0006377 (antibody, V domains shown)
VH: EVQLVESGGGLVKPGGSLRLSCAASGFTFNKAWMSWVRQAPGKGLEWVGRIKSGIDAGTTDYAAPVKGRFTISRDDSKNTLYLQMNSLKTEDTAVYYCVPSPYYYYYGLDVWGQGTTVTVSS
VL: QSALTQPRSVSGSPGQSVTISCTGTSSDVGSYNLVSWYQQHPGKAPKLMIYEVNKRPSGVPDRFSGSKSGATASLTISGLQAEDEADYYCVSYAGTANVFGTGTKVTVL
binds: all assays above

B4: ATL_0006378 (antibody, V domains shown)
VH: EVQLVESGGGLVKPGGSLRLSCAASGFTFNKAWMSWVRQAPGKGLEWVGRIKSGIDAGTTDYAAPVKGRFTISRDDSKNTLYLQMNSLKTEDTAVYYCVPSPYYYYYGLDVWGQGTTVTVSS
VL: QSALTQPRSVSGSPGQSVTISCTGTSSDVGSYNLVSWYQQHPGKAPKLMIYEVNKRPSGVPDRFSGSKSGATASLTISGLQAEDEADYYCVSYGGTENVFGTGTKVTVL
binds: [1] | [2] | [3]
